Measurements reported in PubChem BioAssay AID602196 (INSERM, 2012)

Assay: 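Genes whose knock-down alters cisplatin killing of lung cancer cells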
Cells: human A549 lung cancer cells
Reagent: siRNA pair against human genes
Time to read-out: 48 h transfection before cisplatin; time from cisplatin to read-out not stated
Challenge: cisplatin at a dose killing half of control-siRNA cells; exact dose and duration not given
Detection: 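Shift in cisplatin death relative to control siRNA, from -50 (all cells die) to +50 (no cells die); siRNAs harmful on their own scored 0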
Reading the numbers: two-siRNA summed score (-2 to +2): higher = both siRNAs protect from cisplatin killing; -2 means both sensitise; mean protection from cisplatin (shift in death): higher = protection from cisplatin killing
Rule for the call: 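siRNAs harmful alone (LDH or WST-1) get 0; others get +1 for less and -1 for more cisplatin killing; genes are active when the two siRNAs give the same sign, summing to ±2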
Calls: active = both siRNAs shift cisplatin killing the same way; inactive = no consistent shift, or siRNA harmful alone
Here is one part, drawn at random, of about 23,000 deposited reagents. Of all reagents, 455 (2%) are marked active. 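Active includes both protection and sensitisation; some change values fall well beyond the stated -50 to +50 range.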 A number with no mark means an inactive call. Further read-outs or replicates are left out here. Not given: the amount of reagent.

NRBP1: two-siRNA summed score (-2 to +2) = 1; mean protection from cisplatin (shift in death) (%) = 13.4
ZDHHC1: two-siRNA summed score (-2 to +2) = 1; mean protection from cisplatin (shift in death) (%) = 8.2
SYNE4: two-siRNA summed score (-2 to +2) = -1; mean protection from cisplatin (shift in death) (%) = -13.6
LOC441008: two-siRNA summed score (-2 to +2) = 0; mean protection from cisplatin (shift in death) (%) = 0.5
FLJ12649: two-siRNA summed score (-2 to +2) = 0; mean protection from cisplatin (shift in death) (%) = 7.9
ZAR1: two-siRNA summed score (-2 to +2) = -1; mean protection from cisplatin (shift in death) (%) = -6.8
ASB10: two-siRNA summed score (-2 to +2) = 0; mean protection from cisplatin (shift in death) (%) = -11.4
EPHA4: two-siRNA summed score (-2 to +2) = 1; mean protection from cisplatin (shift in death) (%) = 13.9
PTPRA: two-siRNA summed score (-2 to +2) = 0; mean protection from cisplatin (shift in death) (%) = 4.9
LINC02908: two-siRNA summed score (-2 to +2) = 0; mean protection from cisplatin (shift in death) (%) = -1.2
FXYD7: two-siRNA summed score (-2 to +2) = 0; mean protection from cisplatin (shift in death) (%) = 4.5
ANKRD20A1: two-siRNA summed score (-2 to +2) = 0; mean protection from cisplatin (shift in death) (%) = 3.1
ACTMAP: two-siRNA summed score (-2 to +2) = 1; mean protection from cisplatin (shift in death) (%) = 22.4

Ordered by “two-siRNA summed score (-2 to +2)” (descending): 3 of the entries above
NRBP1: two-siRNA summed score (-2 to +2) = 1; mean protection from cisplatin (shift in death) (%) = 13.4
ZDHHC1: two-siRNA summed score (-2 to +2) = 1; mean protection from cisplatin (shift in death) (%) = 8.2
SYNE4: two-siRNA summed score (-2 to +2) = -1; mean protection from cisplatin (shift in death) (%) = -13.6

The list goes on:
MOB3B: two-siRNA summed score (-2 to +2) = 0; mean protection from cisplatin (shift in death) (%) = 0.2
PCYOX1L: two-siRNA summed score (-2 to +2) = 0; mean protection from cisplatin (shift in death) (%) = 2.8
NOD2: two-siRNA summed score (-2 to +2) = 0; mean protection from cisplatin (shift in death) (%) = 12.7
TRHDE: two-siRNA summed score (-2 to +2) = -1; mean protection from cisplatin (shift in death) (%) = -8.4
IFT122: two-siRNA summed score (-2 to +2) = 0; mean protection from cisplatin (shift in death) (%) = 12.1
TINAG: two-siRNA summed score (-2 to +2) = 0; mean protection from cisplatin (shift in death) (%) = -8
OR2F1: two-siRNA summed score (-2 to +2) = 0; mean protection from cisplatin (shift in death) (%) = 5.1
CDIPT: two-siRNA summed score (-2 to +2) = 0; mean protection from cisplatin (shift in death) (%) = -5.1
LOC400723: two-siRNA summed score (-2 to +2) = 1; mean protection from cisplatin (shift in death) (%) = 6.3
SYPL2: two-siRNA summed score (-2 to +2) = 0; mean protection from cisplatin (shift in death) (%) = 11.5
CD2BP2: two-siRNA summed score (-2 to +2) = 1; mean protection from cisplatin (shift in death) (%) = 13.3
LOC388170: two-siRNA summed score (-2 to +2) = 0; mean protection from cisplatin (shift in death) (%) = 2.2
KRT35: two-siRNA summed score (-2 to +2) = 1; mean protection from cisplatin (shift in death) (%) = 17.1
ZNF324: two-siRNA summed score (-2 to +2) = 0; mean protection from cisplatin (shift in death) (%) = -8.5
LOC441551: two-siRNA summed score (-2 to +2) = 1; mean protection from cisplatin (shift in death) (%) = 10.9
DNAAF5: two-siRNA summed score (-2 to +2) = 0; mean protection from cisplatin (shift in death) (%) = -2.3
FDPS: two-siRNA summed score (-2 to +2) = 0; mean protection from cisplatin (shift in death) (%) = 1
LOC388139: two-siRNA summed score (-2 to +2) = 0; mean protection from cisplatin (shift in death) (%) = 3.9
LOC389469: two-siRNA summed score (-2 to +2) = 1; mean protection from cisplatin (shift in death) (%) = 12.2
RPGRIP1: two-siRNA summed score (-2 to +2) = -1; mean protection from cisplatin (shift in death) (%) = -22.5
ATXN7: two-siRNA summed score (-2 to +2) = 1; mean protection from cisplatin (shift in death) (%) = 9
OR2T12: two-siRNA summed score (-2 to +2) = 1; mean protection from cisplatin (shift in death) (%) = 12.9
IRGM: two-siRNA summed score (-2 to +2) = 0; mean protection from cisplatin (shift in death) (%) = 10.1
HTR3A: two-siRNA summed score (-2 to +2) = 0; mean protection from cisplatin (shift in death) (%) = 6.4
GPR15LG: two-siRNA summed score (-2 to +2) = 0; mean protection from cisplatin (shift in death) (%) = 4
LOC388011: two-siRNA summed score (-2 to +2) = 0; mean protection from cisplatin (shift in death) (%) = 1.4
LOC200624: two-siRNA summed score (-2 to +2) = 1; mean protection from cisplatin (shift in death) (%) = 8.5
